Drawing on PubChem BioAssay AID493014 (National Center for Advancing Translational Sciences (NCATS), 2011), this text covers AC50 for 17 molecules.

SMILES strings stand for the structures. This is one part of the list. These are further read-outs of the screen, such as a control signal, another cell line or another target. No call is given for them. Most of these compounds were active or inconclusive in the main read-out, so they are no random draw. The note in brackets gives the kind of curve behind each potency; many fits are weak.

This assay can be described thus: qHTS Assay to Find Inhibitors of Chronic Active B-Cell Receptor Signaling. The note with it: ABC-DLBCL IkBa-CBG/CBR reporter, luminescence ratio (green luciferase fused to IkBa over red control in TMD8 lymphoma cells), 4 h. Put shortly:
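Compounds up to 46 uM were incubated four hours with TMD8 cells whose green CBG68 luciferase is fused to IkappaBalpha; red CBR luminescence normalised the signal, and concentration-effect curves were fitted to fusion, red and ratio data.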
(In general: In qHTS, concentration-response curves come from the screen itself.)

Setting [1] is: measured here: CBR red luminescence, cell number.
Setting [2] is: measured here: IkBa-CBG green luminescence.

Take `COc1ccccc1C(c1nnnn1CS(=O)(=O)c1ccc(C)cc1)N1CCSCC1` (stereo not drawn): the AC50 (as a rule, the midpoint of the concentration-response curve, whichever way the signal moves) under setting [1] is 22.4 µM [falling, single point]. Still for that read-out and setting: for `O=C(Nc1cccnc1)Nc1ccc(F)c(Cl)c1` the value was 6.51 µM [rising, single point]; for `COc1ccc2nc(N3C(=O)CC(Cc4ccc(Cl)cc4)C3=O)sc2c1` (stereo not drawn), 14.1 µM [falling, partial curve]. On the same count and under the same terms, for `Cc1ccc([C@@H]2CC=C(C(=O)O)[C@H](c3cccc(Cl)c3)N2S(=O)(=O)c2ccccc2C)cc1` the value was 29.1 µM [falling, partial curve, poor fit]; for `CN(c1ccccc1)S(=O)(=O)c1cccc(NC(=O)CCNC(=O)c2ccc([N+](=O)[O-])cc2)c1`, 1.64 µM [rising, partial curve]; for `CCCCC(=O)Nc1cccc(NC(=O)C(C)C)c1`, 29.1 µM [rising, single point]. On the same count and under the same terms, for `CCOc1ccc(S(=O)(=O)N(CCO)CCO)cc1-c1nc2c(C(C)(C)C)nn(C)c2c(=O)[nH]1` the value was 11.6 µM [rising, single point]. Regarding `Cc1cc(N2CCOCC2)nc(SCc2c(Cl)cccc2Cl)n1`, under setting [2], the AC50 is 20.6 µM [falling, partial curve, poor fit].

Take `COc1ccccc1/C=C/C1=NC(=C\N(C)C)/C(=O)O1`: the AC50 under setting [1] is 0.00461 µM [falling, full curve, poor fit].

On to `COc1ccc([C@@H]2C[C@@H](c3ccccc3)Oc3cc(OC)cc(OC)c32)cc1`, for which, under setting [1], the AC50 is 1 µM [rising, full curve]. Still for that read-out and setting: for `O=C1C(C=Nc2ccccc2)=C(O)c2ccccc21` the value was 1.64 µM [falling, full curve]; for `CCC(=O)NNc1ncnc2c1cnn2-c1ccccc1`, 3.16 µM [falling, partial curve, poor fit]; for `COc1ccc(-c2nnc(SCC(=O)Nc3ncc(C)s3)n2-c2ccccc2)cc1OC`, 0.708 µM [falling, full curve, poor fit].

Consider `CC1Cc2ccccc2N1CC(=O)NC(=O)NCc1ccco1` (stereo not drawn), for which the AC50 reads like this: under setting [1], 3.66 µM [falling, single point]; under setting [2], 5.8 µM [rising, partial curve, poor fit]. Consider `COc1ccccc1N(CC(=O)NC1CCCCC1)C(=O)c1csnn1`, for which, under setting [1], the concentration at half-maximal activity (AC50) was 16.4 µM [falling, partial curve]. On to `COC(=O)C1=C(C)N(Cc2ccccc2)C(=NCCc2ccccn2)N[C@H]1c1cccc(F)c1`, for which, under setting [1], the half-maximal activity concentration (AC50) is 35.5 µM [falling, single point]. On the same count and under the same terms, then `COc1ccccc1C(=O)NCC(c1cccnc1)N(C)C` (stereo not drawn), with 12.6 µM [falling, single point].
